Measurements: article doi:10.1101/2025.03.06.641037
No constants are given. Whether binding was seen depends on the method and setting. In cells and extracts the contact can be indirect. Some binding calls cover weakened binding; strength is not graded here. Sequences can lack the tags named with a protein.

Amino acid sequences for entries named in this document (tags omitted).
UniProt P78347: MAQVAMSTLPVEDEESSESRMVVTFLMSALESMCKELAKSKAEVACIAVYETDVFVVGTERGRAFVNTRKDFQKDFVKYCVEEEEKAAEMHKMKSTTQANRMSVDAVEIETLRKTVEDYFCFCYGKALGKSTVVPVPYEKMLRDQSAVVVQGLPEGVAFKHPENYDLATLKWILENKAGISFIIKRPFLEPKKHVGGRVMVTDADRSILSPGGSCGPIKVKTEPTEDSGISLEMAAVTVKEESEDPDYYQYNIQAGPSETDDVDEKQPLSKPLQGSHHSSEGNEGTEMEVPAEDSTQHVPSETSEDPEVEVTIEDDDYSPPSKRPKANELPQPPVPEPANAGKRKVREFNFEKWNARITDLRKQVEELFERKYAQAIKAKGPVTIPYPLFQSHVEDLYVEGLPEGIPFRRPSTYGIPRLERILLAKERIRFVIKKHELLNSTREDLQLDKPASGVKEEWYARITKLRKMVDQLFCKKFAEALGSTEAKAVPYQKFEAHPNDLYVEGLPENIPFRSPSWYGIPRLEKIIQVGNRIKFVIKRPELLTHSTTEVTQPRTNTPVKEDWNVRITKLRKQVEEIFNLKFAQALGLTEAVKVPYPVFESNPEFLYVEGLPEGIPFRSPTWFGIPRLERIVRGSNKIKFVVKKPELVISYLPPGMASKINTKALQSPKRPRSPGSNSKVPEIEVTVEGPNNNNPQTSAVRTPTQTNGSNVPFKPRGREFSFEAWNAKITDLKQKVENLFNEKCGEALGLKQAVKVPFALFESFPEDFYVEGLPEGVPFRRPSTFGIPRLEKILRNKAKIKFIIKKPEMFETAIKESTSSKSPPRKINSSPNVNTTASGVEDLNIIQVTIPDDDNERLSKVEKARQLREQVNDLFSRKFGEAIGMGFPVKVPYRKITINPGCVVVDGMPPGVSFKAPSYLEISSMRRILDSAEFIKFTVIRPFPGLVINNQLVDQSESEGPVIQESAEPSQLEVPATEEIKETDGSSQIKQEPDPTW

Biological target: GTF2I (human (endogenous in H9-derived hNSCs)) (UniProt P78347)
Experiment: co-IP

binding: binds
B1: F2V5-ADNP (Activity-Dependent Neuroprotective Protein, endogenously tagged) (protein, UniProt Q9H2P0 1-1102)
chain: MFQLPVNNLGSLRKARKTVKKILSDIGLEYCKEHIEDFKQFEPNDFYLKNTTWEDVGLWDPSLTKNQDYRTKPFCCSACPFSSKFFSAYKSHFRNVHSEDFENRILLNCPYCTFNADKKTLETHIKIFHAPNASAPSSSLSTFKDKNKNDGLKPKQADSVEQAVYYCKKCTYRDPLYEIVRKHIYREHFQHVAAPYIAKAGEKSLNGAVPLGSNAREESSIHCKRCLFMPKSYEALVQHVIEDHERIGYQVTAMIGHTNVVVPRSKPLMLIAPKPQDKKSMGLPPRIGSLASGNVRSLPSQQMVNRLSIPKPNLNSTGVNMMSSVHLQQNNYGVKSVGQGYSVGQSMRLGLGGNAPVSIPQQSQSVKQLLPSGNGRSYGLGSEQRSQAPARYSLQSANASSLSSGQLKSPSLSQSQASRVLGQSSSKPAAAATGPPPGNTSSTQKWKICTICNELFPENVYSVHFEKEHKAEKVPAVANYIMKIHNFTSKCLYCNRYLPTDTLLNHMLIHGLSCPYCRSTFNDVEKMAAHMRMVHIDEEMGPKTDSTLSFDLTLQQGSHTNIHLLVTTYNLRDAPAESVAYHAQNNPPVPPKPQPKVQEKADIPVKSSPQAAVPYKKDVGKTLCPLCFSILKGPISDALAHHLRERHQVIQTVHPVEKKLTYKCIHCLGVYTSNMTASTITLHLVHCRGVGKTQNGQDKTNAPSRLNQSPSLAPVKRTYEQMEFPLLKKRKLDDDSDSPSFFEEKPEEPVVLALDPKGHEDDSYEARKSFLTKYFNKQPYPTRREIEKLAASLWLWKSDIASHFSNKRKKCVRDCEKYKPGVLLGFNMKELNKVKHEMDFDAEWLFENHDEKDSRVNASKTADKKLNLGKEDDSSSDSFENLEEESNESGSPFDPVFEVEPKISNDNPEEHVLKVIPEDASESEEKLDQKEDGSKYETIHLTEEPTKLMHNASDSEVDQDDVVEWKDGASPSESGPGSQQVSDFEDNTCEMKPGTWSDESSQSEDARSSKPAAKKKATMQGDREQLKWKNSSYGKVEGFWSKDQSQWKNASENDERLSNPQIEWQNSTIDSEDGEQFDNMTDGVAEPMHGSLAGVKLSSQQA
